In US10150984B2, “Tyrosine kinase biosensors and methods of use” (Purdue Research Foundation, priority 2012, dated 2018):

Test: Tb3+ binding affinity and stoichiometry by sensitized luminescence
[1] = unphosphorylated vs phosphorylated form

In the case of “GGDNEGDVYDFVEDGGKbiotin (GGDNEGDVYDFVEDGGKGG; C-terminal lysine biotin; MUTAGEN (17)..(17) Biotinylated Lysine) [SFAStideB, Src family artificial substrate peptide B]”, the “fold weaker Tb3+ binding than the phosphorylated peptide” value [1] is reported as 1.4 fold.
With DEEDYEEPDEP [SAStide] the “fold weaker Tb3+ binding than the phosphorylated peptide” value was 5 fold.
In the case of GGEEDEDIYEELDEPGGKbiotinGG [SFAStide-A], the “fold weaker Tb3+ binding than the phosphorylated peptide” value [1] is reported as 5 fold.

Read-outs that look alike come from different tables or passages of the source.
